{"source": "PubChem BioAssay AID2685", "about": "(National Center for Advancing Translational Sciences (NCATS), 2010)", "note": "Hit rate of the full screen: of about 320,000 compounds, about 2,100 (0.66%) were called active. Inconclusive means that the source gave no clear call. Such entries were picked first, then a sample of the others. The call rests on the fitted dose curve; in most records, active means well fitted inhibition curve with a large enough effect in the signal ratio, with a control signal flat (not every such curve was filed as active); inconclusive means small, poorly fitted or top-dose-only effect, or effect the other way, or a change in a side signal; inactive means flat fitted curve, though single readings scatter; the % refers to the signal ratio. A potency beside an inconclusive call is a rough fit, not a confirmed value. On the % scale 0 is the no-effect control and ±100 the full control effect; potency means the concentration at half of the fitted maximal effect."}
{"test": "qHTS Assay for Lipid Storage Modulators in Drosophila S3 Cells", "details": "BODIPY lipid droplet fluorescence, 18-24 h, cells fed with added oleic acid; lipid storage change, negative = inhibition: at 46.1 µM (top of the series) unless noted", "how_it_was_run": "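Drosophila S3 cells loaded with oleic acid (400 uM, as added) and compounds at several concentrations; lipid droplets imaged by 488-nm laser-scanning cytometry, 500–530 nm intensity and object ratio to cell channel. Percent activity normalized to 20 uM Triacsin C.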"}
{"smiles": "COc1ccc(-c2nn(-c3ccccc3)cc2C(N)=O)cc1OC", "lipid storage change, negative = inhibition": "inconclusive: -2.05%"}
{"smiles": "O=C(c1ccccc1)N1CCN(C(=O)c2ccc3c(c2)OCO3)CC1", "Potency": "inconclusive: 1.03 µM [activator, full curve]"}
{"smiles": "CCCn1nc(C(=O)OCc2nc(N)nc(Nc3ccccc3C)n2)c2ccccc2c1=O", "lipid storage change, negative = inhibition": "inconclusive: 15.2%"}
{"smiles": "Cc1ccc(-c2noc(CCC(=O)NCc3ccc4c(c3)OCO4)n2)cc1", "Potency": "inconclusive: 11.6 µM [activator, partial curve]"}
{"smiles": "CC(=O)c1ccc(NC(=O)CC(C)S(=O)(=O)c2ccc3c(c2)CCN3C(C)=O)cc1", "note": "(configuration not stated)", "lipid storage change, negative = inhibition": "inconclusive: 412%"}
{"smiles": "O=C(NC(=S)N1CCCCCC1)c1cccc([N+](=O)[O-])c1", "lipid storage change, negative = inhibition": "inconclusive: -2.35%"}
{"smiles": "O=C(O)c1cc(NC(=O)c2ccco2)cc(NC(=O)c2ccco2)c1", "Potency": "inconclusive: 6.51 µM [activator, single point]"}
{"smiles": "CCCCCn1c(=O)[nH]c2cc(C(=O)NCCCN3CCCCC3)ccc2c1=O", "lipid storage change, negative = inhibition": "inconclusive: -11.2%"}
{"smiles": "CCOc1cc(/C=C/C(=O)c2ccc(OC)c(CN3CCOCC3)c2)cc(Br)c1O", "lipid storage change, negative = inhibition": "inconclusive: 71.1%"}
{"smiles": "O=C1COc2ccc(C(=O)c3ccccc3C(=O)O)cc2N1", "lipid storage change, negative = inhibition": "inconclusive: -2.06%"}
{"smiles": "Cc1ccc(C(CC(=O)c2ccco2)SCCO)cc1", "note": "(configuration not stated)", "lipid storage change, negative = inhibition": "inconclusive: -31.7%"}
{"smiles": "Cc1onc(-c2ccccc2Cl)c1C(=O)O/N=C(\\N)c1ccc([N+](=O)[O-])o1", "Potency": "inconclusive: 18.4 µM [falling, single point]"}
{"smiles": "Oc1oc(-c2ccc(Br)cc2)nc1C=Nc1ccc(Br)cn1", "Potency": "inconclusive: 13 µM [activator, single point]"}
{"smiles": "O=C(O)C1CCCCC1C(=O)OCCCCOC(=O)C1CCCCC1C(=O)O", "note": "(configuration not stated)", "lipid storage change, negative = inhibition": "inconclusive: 46.5%"}
{"smiles": "CC(C)CCn1c(Sc2nc3ccccc3o2)nc2c1c(=O)[nH]c(=O)n2C", "Potency": "inconclusive: 32.6 µM [falling, single point]"}
{"smiles": "Cc1ccc(C(=O)NC(=S)Nc2cc(C(F)(F)F)ccc2Cl)cc1", "lipid storage change, negative = inhibition": "inconclusive: 153%"}
{"smiles": "CCOc1ccc(S(=O)(=O)Nc2ccc3c(c2)OCO3)cc1", "Potency": "inconclusive: 6.51 µM [falling, single point]"}
{"smiles": "CCCc1cc(C(=O)N2CCCC(C(=O)c3cccc4ccccc34)C2)n(C)n1", "note": "(configuration not stated)", "lipid storage change, negative = inhibition": "inconclusive: -37.5%"}
{"smiles": "O=C(O)c1cccc(Nc2ncnc3c2cnn3-c2ccccc2)c1", "Potency": "inconclusive: 0.259 µM [falling, full curve, poor fit]"}
{"smiles": "COc1ccc(CC(=O)Nc2cccc(C(=O)O)c2C)cc1", "lipid storage change, negative = inhibition": "inconclusive: -5.39%"}
{"smiles": "CCOC(=O)C1CCN(S(=O)(=O)c2cc(Cl)c(C)cc2OC)CC1", "lipid storage change, negative = inhibition": "inconclusive: -2.95%"}
{"smiles": "CCCc1nc2c(=O)n(C)c(=O)[nH]c2n1C", "lipid storage change, negative = inhibition": "inconclusive: -19.4%"}
{"smiles": "NC(=O)C1CCN(C(=O)c2ccc(NS(=O)(=O)c3ccc(F)c(F)c3)cc2)CC1", "Potency": "inconclusive: 6.51 µM [activator, partial curve, poor fit]"}
{"smiles": "COC(=O)c1ccc(C(=O)OC)c(NC(=O)CSCc2ccccc2Br)c1", "lipid storage change, negative = inhibition": "inconclusive: 57.8%"}
{"smiles": "CCS(=O)(=O)N1Cc2ccccc2CC1C(=O)NC(C)C12CC3CC(CC(C3)C1)C2", "note": "(configuration not stated)", "Potency": "active: 23.1 µM"}
{"smiles": "COc1ccccc1N1CCN(C(=O)NCc2ccc(Cl)cc2)CC1", "lipid storage change, negative = inhibition": "inconclusive: 256%"}
{"smiles": "COc1cccc(CNC(=O)C(CCSC)NS(=O)(=O)c2ccc3c(c2)oc(=O)n3C)c1", "note": "(configuration not stated)", "lipid storage change, negative = inhibition": "inconclusive: 18%"}
{"smiles": "Cc1cc(NC(=O)CC#N)n(-c2ccccc2)n1", "lipid storage change, negative = inhibition": "inconclusive: -34.7% [at 0.00295 µM]"}
{"smiles": "Cc1ccc(S(=O)(=O)N(CC(=O)Nc2ccc(F)cc2)C(=O)N2CCN(C)CC2)cc1", "lipid storage change, negative = inhibition": "inconclusive: 6.98%"}
{"smiles": "CCN1CCCC1CNS(=O)(=O)c1ccc(F)c(Cl)c1", "note": "(configuration not stated)", "lipid storage change, negative = inhibition": "inconclusive: -15.8%"}
{"smiles": "CCN(CC(=O)Nc1cc(S(=O)(=O)N2CCOCC2)ccc1Cl)Cc1ccccc1", "lipid storage change, negative = inhibition": "inconclusive: -2.79%"}
{"smiles": "COc1ccc2c(c1)[C@H]1[C@H](CO2)[C@H](c2ccccc2)[C@]2(C)C(=O)N[C@H](C)C(=O)N12", "Potency": "inconclusive: 23.1 µM [activator, single point]"}
{"smiles": "CC(C)C(c1nnnn1C1CCCC1)N(C)C1CCCCC1", "note": "(configuration not stated)", "Potency": "active: 5.17 µM"}
{"smiles": "COc1ccc(CNCc2c(O)c(Cl)cc3c(C)c(C)c(=O)oc23)c(OC)c1", "lipid storage change, negative = inhibition": "inconclusive: 4.37%"}
{"smiles": "COc1ccc([N+](=O)[O-])cc1N(CC(=O)N1CCCCC1)S(C)(=O)=O", "lipid storage change, negative = inhibition": "inconclusive: -35.5%"}
{"smiles": "Cn1c(C(=O)N2CCCC(Nc3ccc(F)cc3)C2)cc2ccccc21", "note": "(configuration not stated)", "lipid storage change, negative = inhibition": "inconclusive: -121%"}
{"smiles": "CN(C)CCCNC(=S)N1CCN(c2nc(-c3ccccc3)cs2)CC1", "lipid storage change, negative = inhibition": "inconclusive: 3.35%"}
{"smiles": "Cc1ccccc1NC(=O)c1nc2nccc(C)n2n1", "lipid storage change, negative = inhibition": "inconclusive: 38.2%"}
{"smiles": "CCc1nnc(NC(=O)CC23CC4CC(CC(C4)C2)C3)s1", "lipid storage change, negative = inhibition": "inconclusive: 4.17%"}
{"smiles": "CCCN(C(=O)COC(=O)CCOc1ccccc1C)c1c(N)n(Cc2ccccc2)c(=O)[nH]c1=O", "lipid storage change, negative = inhibition": "inconclusive: -13.3%"}
{"smiles": "O=C1CC(c2ccc(F)cc2)Cc2nc(NCC3CCCO3)ncc21", "note": "(configuration not stated)", "Potency": "inconclusive: 29.1 µM [activator, single point]"}
{"smiles": "FC(F)(F)c1ccccc1CN1CCCC(N2CCN(c3ccccc3)CC2)C1", "note": "(configuration not stated)", "Potency": "inconclusive: 6.51 µM [activator, partial curve]"}
{"smiles": "Cc1c(C(=O)N2C[C@@H](C)O[C@@H](C)C2)oc2c(F)cccc12", "Potency": "inconclusive: 0.58 µM [falling, single point]"}
{"smiles": "CCOC(=O)N1CCC(NC(=O)CS(=O)Cc2nc(-c3ccc(Cl)cc3)oc2C)CC1", "note": "(configuration not stated)", "lipid storage change, negative = inhibition": "inconclusive: -19.9%"}
{"smiles": "CCN(CC)S(=O)(=O)c1cccc(C(=O)Nc2ccc(C#N)cc2)c1", "Potency": "inconclusive: 0.184 µM [activator, full curve, poor fit]"}
{"smiles": "Cc1nc(NC(=O)C2CCCCC2C(=O)O)sc1C", "note": "(configuration not stated)", "lipid storage change, negative = inhibition": "inconclusive: 15.6%"}
{"smiles": "Cc1nc(NS(=O)(=O)c2ccccc2)sc1C(C)(C)C", "lipid storage change, negative = inhibition": "inconclusive: 11.8%"}
{"smiles": "COc1ccc(C(=O)N/C(=C\\c2cccc3ccccc23)C(=O)N2CCN(C)CC2)cc1OC", "lipid storage change, negative = inhibition": "inconclusive: -6.41%"}
{"smiles": "Cc1ccc2nc(SCC(=O)c3c(N)n(C4CC4)c(=O)[nH]c3=O)[nH]c2c1", "lipid storage change, negative = inhibition": "inconclusive"}
{"smiles": "Cc1cc(C)c(NC(N)=S)c(C)c1", "lipid storage change, negative = inhibition": "inconclusive: -6.66%"}
{"smiles": "COc1ccc(-c2noc(C3CCCN(C(=O)c4ccccc4OC)C3)n2)cc1", "note": "(configuration not stated)", "lipid storage change, negative = inhibition": "inconclusive: 43.6%"}
{"smiles": "CS(=O)(=O)Nc1ccc(C(=O)N2CCCC2)cc1", "Potency": "inconclusive: 8.2 µM [activator, partial curve, poor fit]"}
{"smiles": "Cc1ccc(N(C)C(=O)N2CCN(S(=O)(=O)c3ccc(C)cc3)CC2)cc1", "Potency": "inconclusive: 16.4 µM [activator, single point]"}
{"smiles": "Cc1cc(/C=N/Nc2ccc([N+](=O)[O-])cn2)c(C)n1-c1cccc(C(=O)O)c1", "lipid storage change, negative = inhibition": "inconclusive: 9.69%"}
{"smiles": "O=C(NC1CCC(=O)N(CCOc2ccccc2)CC1)OCc1ccccc1", "note": "(configuration not stated)", "lipid storage change, negative = inhibition": "inconclusive: -10.8%"}
{"smiles": "Cc1cc(=O)oc(C)c1C(=O)N1CCN(C(c2ccccc2)c2ccccc2)CC1", "Potency": "inconclusive: 0.82 µM [activator, full curve]"}
{"smiles": "O=C(Oc1ccc(-c2nnco2)cc1)C1CCN(C(=O)c2ccc(F)cc2)CC1", "lipid storage change, negative = inhibition": "inconclusive: 79.8%"}
{"smiles": "CCCCn1nnnc1SCC(=O)Nc1sc2c(c1C#N)CCCC2", "lipid storage change, negative = inhibition": "inconclusive: 29.8%"}
{"smiles": "O=S1(=O)CCC(NCC2CCCO2)C1", "note": "(configuration not stated)", "lipid storage change, negative = inhibition": "inconclusive: 61.1%"}
{"smiles": "NC(=O)c1nsc(C(=O)N(CC(=O)NC2CCCCC2)c2ccc(Cl)cc2)c1N", "Potency": "active: 14.6 µM"}
{"smiles": "CC(C)C(=O)NC(=O)COC(=O)/C=C/c1cccs1", "lipid storage change, negative = inhibition": "inconclusive: 8.04%"}
{"smiles": "Cc1ccc(-c2nc3ccccc3nc2Cl)cc1", "lipid storage change, negative = inhibition": "inconclusive: 40.9%"}
{"smiles": "COC(=O)CSc1nc2nc(C)cc(C)n2n1", "lipid storage change, negative = inhibition": "inconclusive: 12.9%"}
{"smiles": "CCCCSc1nnc(CSc2ncccn2)n1C", "lipid storage change, negative = inhibition": "inconclusive: 1.87%"}
{"smiles": "COC(=O)c1ccc(-c2nc(-c3cccs3)no2)cc1", "Potency": "inconclusive: 0.731 µM [activator, single point]"}
{"smiles": "COc1ccccc1C(CNc1nc(C(F)(F)F)nc2ccccc12)N(C)C", "note": "(configuration not stated)", "lipid storage change, negative = inhibition": "inconclusive: 56.9%"}
{"smiles": "COc1ccc(C2=NCCc3cc(OC)c(OC)cc32)cc1OC", "lipid storage change, negative = inhibition": "inconclusive: 1.57%"}
{"smiles": "Cc1ccc(NC(=O)CCS(=O)(=O)c2cc3c(cc2Cl)NC(=O)CO3)cc1", "Potency": "inconclusive: 29.1 µM [activator, single point]"}
{"smiles": "O/N=C/c1cn(-c2ccc(Cl)cc2)nn1", "lipid storage change, negative = inhibition": "inconclusive: 13.5%"}
{"smiles": "CCc1nnc(NC(=O)c2cccc(S(=O)(=O)N3CC(c4ccccc4)CC3=O)c2)s1", "note": "(configuration not stated)", "lipid storage change, negative = inhibition": "inconclusive: 0.479%"}
{"smiles": "Cc1cccc(C)c1NC(=O)COC(=O)CN1C(=O)C2CCCCC2C1=O", "note": "(configuration not stated)", "lipid storage change, negative = inhibition": "inconclusive: 11.8%"}
{"smiles": "CCn1c2ccccc2c2c3ncc4cccn4c3ccc21", "Potency": "inconclusive: 29.1 µM [falling, single point]"}
{"smiles": "O=C(Nc1ccccc1OC(F)F)C1CC(=O)N(Cc2ccccc2)C1", "note": "(configuration not stated)", "lipid storage change, negative = inhibition": "inconclusive"}
{"smiles": "Cc1ccc(NC(=O)CSc2nnc(-c3cccs3)o2)cc1S(=O)(=O)N(C)C", "Potency": "inconclusive: 29.1 µM [rising, partial curve, poor fit]"}
{"smiles": "CN1CCN(c2ccccc2NC(=O)c2ccc(OCc3ccccc3)cc2)CC1", "lipid storage change, negative = inhibition": "inconclusive: 68.3%"}
{"smiles": "Cc1cccc(NC(=O)COc2ccccc2)c1", "Potency": "inconclusive: 0.146 µM [falling, full curve]"}
{"smiles": "CC(C)[C@H](NC(=O)N1c2ccccc2NC(=O)[C@@H]1C(C)C)C(=O)N[C@H](Cc1ccccc1)C(=O)O", "lipid storage change, negative = inhibition": "inconclusive: 4.7%"}
